Measurements reported in PubChem BioAssay AID1224830 (NIAID, 2016)
Purpose: 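Regulators of TLR4 signalling towards TNF-alpha in macrophage-like cells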 (primary screen). Cell system: human THP-1 monocytic leukaemia cells, TNF dual-luciferase reporter clone, PMA-differentiated to macrophage-like cells. Reagents: siRNA pool against human genes, 50 nM. Duration: LPS for 4 h, given about 3 days after siRNA transfection. Challenge: bacterial LPS (TLR4 ligand), 10 ng/ml. Read-out: 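Ratio of firefly to renilla light, scaled to the plate median and expressed as a robust z-score per replicate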. Reading the numbers: TNF reporter robust z-score: higher = stronger TNF reporter response to LPS. Hit rule: 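a well is active when its z-score exceeds 2.8 or falls below -1.5; control wells carry no call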.
The deposit covers about 18,000 reagents; shown is an unselected part. Over the whole deposit, about 2,900 (16%) got an active call. 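Calls are made per well; low scores hint the gene aids the LPS response, high scores that it dampens it.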 Repeated entries: four replicate wells of each siRNA pool.

Gene	TNF reporter robust z-score	Call
ZNF507 (zinc finger protein 507)	-1.05	inactive
ZNF507 (zinc finger protein 507)	0.86	inactive
ZNF507 (zinc finger protein 507)	0.48	inactive
ZNF507 (zinc finger protein 507)	-0.8	inactive
PCDH1 (protocadherin 1)	-0.76	inactive
PCDH1 (protocadherin 1)	-0.66	inactive
PCDH1 (protocadherin 1)	-0.86	inactive
PCDH1 (protocadherin 1)	-0.7	inactive
ZDHHC20 (zDHHC palmitoyltransferase 20)	4.7	active
ZDHHC20 (zDHHC palmitoyltransferase 20)	-0.45	inactive
ZDHHC20 (zDHHC palmitoyltransferase 20)	0.44	inactive
ZDHHC20 (zDHHC palmitoyltransferase 20)	-0.37	inactive
DLX1 (distal-less homeobox 1)	-1.01	inactive
DLX1 (distal-less homeobox 1)	0.22	inactive
DLX1 (distal-less homeobox 1)	-0.99	inactive
DLX1 (distal-less homeobox 1)	-0.83	inactive
PTPRA (protein tyrosine phosphatase receptor type A)	0.38	inactive
PTPRA (protein tyrosine phosphatase receptor type A)	0.97	inactive
PTPRA (protein tyrosine phosphatase receptor type A)	2.81	active
PTPRA (protein tyrosine phosphatase receptor type A)	2.05	inactive
PLA2G4A (phospholipase A2 group IVA)	-0.93	inactive
PLA2G4A (phospholipase A2 group IVA)	-1.05	inactive
PLA2G4A (phospholipase A2 group IVA)	-1.17	inactive
PLA2G4A (phospholipase A2 group IVA)	-0.83	inactive
IL13RA2 (interleukin 13 receptor subunit alpha 2)	-0.7	inactive
IL13RA2 (interleukin 13 receptor subunit alpha 2)	-0.19	inactive
IL13RA2 (interleukin 13 receptor subunit alpha 2)	-0.83	inactive
IL13RA2 (interleukin 13 receptor subunit alpha 2)	-0.41	inactive
PEDS1 (plasmanylethanolamine desaturase 1)	-0.76	inactive
PEDS1 (plasmanylethanolamine desaturase 1)	-1.03	inactive
PEDS1 (plasmanylethanolamine desaturase 1)	-0.57	inactive
PEDS1 (plasmanylethanolamine desaturase 1)	-0.99	inactive
DUSP22 (dual specificity phosphatase 22)	0.08	inactive
DUSP22 (dual specificity phosphatase 22)	0.46	inactive
DUSP22 (dual specificity phosphatase 22)	-0.6	inactive
DUSP22 (dual specificity phosphatase 22)	-0.68	inactive
FKBP5 (FKBP prolyl isomerase 5)	-0.86	inactive
FKBP5 (FKBP prolyl isomerase 5)	-0.33	inactive
FKBP5 (FKBP prolyl isomerase 5)	-0.61	inactive
FKBP5 (FKBP prolyl isomerase 5)	0.02	inactive

In a second layout: entries from further up
ZNF507 (zinc finger protein 507) → TNF reporter robust z-score = 0.86; Call = inactive
ZNF507 (zinc finger protein 507) → TNF reporter robust z-score = 0.48; Call = inactive
ZNF507 (zinc finger protein 507) → TNF reporter robust z-score = -0.8; Call = inactive
PCDH1 (protocadherin 1) → TNF reporter robust z-score = -0.76; Call = inactive
PCDH1 (protocadherin 1) → TNF reporter robust z-score = -0.66; Call = inactive
PCDH1 (protocadherin 1) → TNF reporter robust z-score = -0.86; Call = inactive
PCDH1 (protocadherin 1) → TNF reporter robust z-score = -0.7; Call = inactive
ZDHHC20 (zDHHC palmitoyltransferase 20) → TNF reporter robust z-score = 4.7; Call = active
ZDHHC20 (zDHHC palmitoyltransferase 20) → TNF reporter robust z-score = -0.45; Call = inactive
ZDHHC20 (zDHHC palmitoyltransferase 20) → TNF reporter robust z-score = 0.44; Call = inactive
ZDHHC20 (zDHHC palmitoyltransferase 20) → TNF reporter robust z-score = -0.37; Call = inactive
DLX1 (distal-less homeobox 1) → TNF reporter robust z-score = -1.01; Call = inactive
DLX1 (distal-less homeobox 1) → TNF reporter robust z-score = 0.22; Call = inactive

The results go on.
Gene	TNF reporter robust z-score	Call
METAP1D (methionyl aminopeptidase type 1D, mitochondrial)	0.81	inactive
METAP1D (methionyl aminopeptidase type 1D, mitochondrial)	1.37	inactive
METAP1D (methionyl aminopeptidase type 1D, mitochondrial)	0.88	inactive
METAP1D (methionyl aminopeptidase type 1D, mitochondrial)	0.34	inactive
ZNF446 (zinc finger protein 446)	2.11	inactive
ZNF446 (zinc finger protein 446)	1.09	inactive
ZNF446 (zinc finger protein 446)	0.1	inactive
ZNF446 (zinc finger protein 446)	0.9	inactive
IFIT1B (interferon induced protein with tetratricopeptide repeats 1B)	-0.36	inactive
IFIT1B (interferon induced protein with tetratricopeptide repeats 1B)	-0.73	inactive
IFIT1B (interferon induced protein with tetratricopeptide repeats 1B)	-0.28	inactive
IFIT1B (interferon induced protein with tetratricopeptide repeats 1B)	-0.82	inactive
HSPA1L (heat shock protein family A (Hsp70) member 1 like)	0.1	inactive
HSPA1L (heat shock protein family A (Hsp70) member 1 like)	-0.25	inactive
HSPA1L (heat shock protein family A (Hsp70) member 1 like)	-0.7	inactive
HSPA1L (heat shock protein family A (Hsp70) member 1 like)	0.54	inactive
MORC1 (MORC family CW-type zinc finger 1)	-0.15	inactive
MORC1 (MORC family CW-type zinc finger 1)	0.17	inactive
MORC1 (MORC family CW-type zinc finger 1)	-0.3	inactive
MORC1 (MORC family CW-type zinc finger 1)	-0.78	inactive
STPG4 (sperm-tail PG-rich repeat containing 4)	-0.01	inactive
STPG4 (sperm-tail PG-rich repeat containing 4)	1	inactive
STPG4 (sperm-tail PG-rich repeat containing 4)	-0.12	inactive
STPG4 (sperm-tail PG-rich repeat containing 4)	0.57	inactive
KIF26A (kinesin family member 26A)	-0.27	inactive
KIF26A (kinesin family member 26A)	0.06	inactive
KIF26A (kinesin family member 26A)	-0.1	inactive
KIF26A (kinesin family member 26A)	-0.21	inactive
COQ5 (coenzyme Q5, methyltransferase)	0.13	inactive
COQ5 (coenzyme Q5, methyltransferase)	-0.48	inactive
COQ5 (coenzyme Q5, methyltransferase)	-0.44	inactive
COQ5 (coenzyme Q5, methyltransferase)	0.22	inactive
MAST1 (microtubule associated serine/threonine kinase 1)	-1.18	inactive
MAST1 (microtubule associated serine/threonine kinase 1)	0.27	inactive
MAST1 (microtubule associated serine/threonine kinase 1)	-0.87	inactive
MAST1 (microtubule associated serine/threonine kinase 1)	0.04	inactive
MT1G (metallothionein 1G)	-0.88	inactive
MT1G (metallothionein 1G)	-1.01	inactive
MT1G (metallothionein 1G)	-1.32	inactive
MT1G (metallothionein 1G)	-0.48	inactive
OR4C15 (olfactory receptor family 4 subfamily C member 15)	-0.2	inactive
OR4C15 (olfactory receptor family 4 subfamily C member 15)	0.24	inactive
OR4C15 (olfactory receptor family 4 subfamily C member 15)	0.19	inactive
OR4C15 (olfactory receptor family 4 subfamily C member 15)	1.18	inactive
SRPK3 (SRSF protein kinase 3)	0.5	inactive
SRPK3 (SRSF protein kinase 3)	0.51	inactive
SRPK3 (SRSF protein kinase 3)	-0.22	inactive
SRPK3 (SRSF protein kinase 3)	0.6	inactive
CCIN (calicin)	-0.34	inactive
CCIN (calicin)	-0.06	inactive
CCIN (calicin)	-0.07	inactive
CCIN (calicin)	-0.38	inactive
GABRG3 (gamma-aminobutyric acid type A receptor subunit gamma3)	0.63	inactive
GABRG3 (gamma-aminobutyric acid type A receptor subunit gamma3)	0.22	inactive
GABRG3 (gamma-aminobutyric acid type A receptor subunit gamma3)	0.15	inactive
GABRG3 (gamma-aminobutyric acid type A receptor subunit gamma3)	0.24	inactive
SCAF4 (SR-related CTD associated factor 4)	1.47	inactive
SCAF4 (SR-related CTD associated factor 4)	3.89	active
SCAF4 (SR-related CTD associated factor 4)	2.93	active
SCAF4 (SR-related CTD associated factor 4)	1.92	inactive
MAP3K5 (mitogen-activated protein kinase kinase kinase 5)	-0.2	inactive
MAP3K5 (mitogen-activated protein kinase kinase kinase 5)	0.17	inactive
MAP3K5 (mitogen-activated protein kinase kinase kinase 5)	0.09	inactive
MAP3K5 (mitogen-activated protein kinase kinase kinase 5)	-0.02	inactive
HBP1 (HMG-box transcription factor 1)	0.78	inactive
HBP1 (HMG-box transcription factor 1)	1.15	inactive
HBP1 (HMG-box transcription factor 1)	0.34	inactive
HBP1 (HMG-box transcription factor 1)	2.55	inactive
TAS2R41 (taste 2 receptor member 41)	-1.01	inactive
TAS2R41 (taste 2 receptor member 41)	-0.28	inactive
TAS2R41 (taste 2 receptor member 41)	0.84	inactive
TAS2R41 (taste 2 receptor member 41)	0.53	inactive
